The target of the assay is T1, T-cell immunoglobulin and mucin domain containing 4 (Tim-4), endogenous in mouse peritoneal macrophages (mouse (endogenous in PEMs)) (UniProt Q6U7R4).
T1 sequence: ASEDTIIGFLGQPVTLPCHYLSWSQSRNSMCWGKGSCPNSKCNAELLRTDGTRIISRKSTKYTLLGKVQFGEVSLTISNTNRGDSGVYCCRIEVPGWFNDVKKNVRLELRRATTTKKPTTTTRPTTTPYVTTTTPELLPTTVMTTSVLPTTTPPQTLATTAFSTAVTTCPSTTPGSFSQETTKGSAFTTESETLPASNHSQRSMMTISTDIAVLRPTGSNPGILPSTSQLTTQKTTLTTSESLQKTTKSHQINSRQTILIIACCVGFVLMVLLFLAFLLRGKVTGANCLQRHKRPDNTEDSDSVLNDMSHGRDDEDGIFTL
Description: co-IP; endogenous proteins in PEM lysate; IP with anti-Tim-4 (sc-390805) or IgG; immunoblot with anti-Tim-4 and anti-CK2β. (In general: In western blotting, separated proteins are transferred to a membrane and probed.)

Chains of the proteins cited; added tags and fusions are not shown.
UniProt P67871: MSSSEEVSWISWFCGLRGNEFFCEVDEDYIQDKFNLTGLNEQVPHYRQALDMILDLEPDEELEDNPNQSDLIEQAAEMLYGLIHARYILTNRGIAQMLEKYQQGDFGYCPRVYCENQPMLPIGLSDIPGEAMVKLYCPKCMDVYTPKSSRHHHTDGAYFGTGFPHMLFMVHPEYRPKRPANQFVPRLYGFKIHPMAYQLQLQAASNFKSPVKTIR

These are yes or no findings as the source states them, for the method shown. Binding seen in cells or lysates may run through a third protein. Some entries that bind do so weakly or less than the wild type.

On to “casein kinase 2β (CK2β) regulatory subunit, endogenous in mouse peritoneal macrophages (from UniProt P67871 1-215)”, for which the binding entry is reported as “binds”.

(Values after PMC12500436.)
